According to paper PMC9500956, “In Vitro Characterization of the Physical Interactions between the Long Noncoding RNA TERRA and the Telomeric Proteins TRF1 and TRF2”:
Construct, isoform or probe ends are uncertain for at least one entry. For some of these results: A negative result means that nothing was seen under these conditions.

By UniProt entry, the sequences of proteins in these tests, tags left out. Where a name states a change or a piece, a line headed by the entry shows the natural chain unless it says otherwise.
UniProt O35144: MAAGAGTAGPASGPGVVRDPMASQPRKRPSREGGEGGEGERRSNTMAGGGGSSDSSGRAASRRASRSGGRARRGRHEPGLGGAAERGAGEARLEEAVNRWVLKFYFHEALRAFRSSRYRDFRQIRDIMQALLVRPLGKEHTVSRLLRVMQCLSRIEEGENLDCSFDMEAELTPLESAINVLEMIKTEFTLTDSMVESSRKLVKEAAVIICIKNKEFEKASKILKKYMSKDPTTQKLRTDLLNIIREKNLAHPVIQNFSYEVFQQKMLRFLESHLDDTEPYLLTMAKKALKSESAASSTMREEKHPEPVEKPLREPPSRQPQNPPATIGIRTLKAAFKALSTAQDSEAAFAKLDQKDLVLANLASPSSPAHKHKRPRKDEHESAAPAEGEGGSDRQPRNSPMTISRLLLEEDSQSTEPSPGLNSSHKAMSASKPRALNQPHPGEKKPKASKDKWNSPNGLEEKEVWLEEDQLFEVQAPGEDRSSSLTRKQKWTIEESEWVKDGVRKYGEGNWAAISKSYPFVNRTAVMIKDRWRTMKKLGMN
UniProt P70371: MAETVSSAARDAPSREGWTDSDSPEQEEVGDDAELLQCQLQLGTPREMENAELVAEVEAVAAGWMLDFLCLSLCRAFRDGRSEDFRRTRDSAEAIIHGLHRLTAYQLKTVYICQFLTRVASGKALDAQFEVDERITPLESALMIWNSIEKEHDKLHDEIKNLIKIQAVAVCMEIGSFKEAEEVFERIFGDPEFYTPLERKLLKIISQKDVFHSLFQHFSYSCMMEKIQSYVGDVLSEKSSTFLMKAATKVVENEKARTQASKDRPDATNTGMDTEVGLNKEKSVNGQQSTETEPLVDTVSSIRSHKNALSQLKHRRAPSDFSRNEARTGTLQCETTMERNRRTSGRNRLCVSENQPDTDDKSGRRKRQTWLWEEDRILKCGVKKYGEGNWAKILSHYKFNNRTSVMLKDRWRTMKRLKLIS

Legend:
Experiment in all cases: EMSA
GST-mB (mouse) = GST-mB (mouse) (UniProt O35144); details: E. coli tRNA; RNA EMSA: 50 mM HEPES pH 8, 1 mM DTT, 100 mM NaCl, 0.01% BSA, 2% glycerol, 50 ng/uL E. coli tRNA, 0.25 nM RNA, 20 min on ice then 10 min 25 C; recombinant protein; protein details: N-terminal GST; label: 5'-32P
GST-mBL (mouse) = GST-mBL (mouse) (UniProt O35144); details: E. coli tRNA; RNA EMSA: 50 mM HEPES pH 8, 1 mM DTT, 100 mM NaCl, 0.01% BSA, 2% glycerol, 50 ng/uL E. coli tRNA, 0.25 nM RNA, 20 min on ice then 10 min 25 C; recombinant protein; protein details: N-terminal GST; label: 5'-32P
GST = details: E. coli tRNA; RNA EMSA: 50 mM HEPES pH 8, 1 mM DTT, 100 mM NaCl, 0.01% BSA, 2% glycerol, 50 ng/uL E. coli tRNA, 0.25 nM RNA, 20 min on ice then 10 min 25 C; recombinant protein; label: 5'-32P
GST-mA (mouse) = GST-mA (mouse) (UniProt P70371); details: E. coli tRNA; RNA EMSA: 50 mM HEPES pH 8, 1 mM DTT, 100 mM NaCl, 0.01% BSA, 2% glycerol, 50 ng/uL E. coli tRNA, 0.25 nM RNA, 20 min on ice then 10 min 25 C; recombinant protein; protein details: N-terminal GST; label: 5'-32P

“UUAGGGUUAGGGUUAGGGUUAGGGUUAGGG [TERRA (UUAGGG)5]”: binds (GST-mB (mouse)); binds (GST-mBL (mouse)); no binding (GST). “UUAGGGUUAGGGUUAGGGUUAGGGUUAGGG [TERRA (UUAGGG)5]”: no binding (GST-mA (mouse)).
